# Test results published in PubChem BioAssay AID588497 (NMMLSC, 2011).
# The whole screen tested about 360,000 compounds, of which about 780 (0.22%) were called active. Inconclusive means that the source gave no clear call. Such entries were picked first, then a sample of the others. No stated cut-off is given here; in the data, active means inhibition above about 35% (passing the limit was not always enough); inconclusive means no clear call, values can overlap the other calls.
# Tested on: Botulinum neurotoxin type F light chain protease (Clostridium botulinum)
# Assay: BoNT/F light chain protease inhibitors, primary screen, biochemical, flow cytometry, MLPCN library (AID 588497); further: plate controls were buffer without enzyme for full effect and enzyme alone for no effect
# Conditions: Multiplex microsphere protease cleavage assay, at 10 µM, stronger effect = higher value
row,SMILES,inhibition
1,COc1ccc(Cl)cc1C(=O)NNC(=O)c1ccncc1,inconclusive: 36.6%
2,CSc1ccc(CN2CCC(n3nccc3NC(=O)C3CCOC3)CC2)cc1 (stereo not drawn),inactive: 5.5%
3,Cn1c(COc2ccccc2)nnc1SCC(=O)Nc1nnc(C2CC2)s1,inactive: 5.4%
4,CC(C)c1ccc(N(CC(=O)N2CCOCC2)S(C)(=O)=O)cc1,inconclusive: -5.2%
5,Cc1ccc(N2C(=O)CC(Sc3ncn[nH]3)C2=O)cc1 (stereo not drawn),inconclusive: 25.3%
6,CC(C)[C@H](NC(=O)c1cccc(CN(Cc2ccccc2)C(=O)/C=C/c2ccccc2)c1)C(=O)O,inconclusive: -40.1%
7,Cc1nc(N)c(C#N)c(-c2cccnc2)c1-c1ccccc1,inactive: 7.3%
8,Cc1ccc(/C=C/c2onc(C)c2S(=O)(=O)N2CCC(C(=O)N3CCCCC3)CC2)cc1,inactive: -0.6%
9,COCCn1c(SCc2cccnc2)nnc1-c1ccco1,inconclusive: -23.4%
10,Cc1cc(C(=O)NNC(=O)c2cccc(C(F)(F)F)c2)no1,inconclusive: 18%
11,N#CCCn1cc(C(=O)Nc2cccc(C(=O)O)c2)c(-c2ccc(Cl)cc2)n1,inconclusive: -26.5%
12,CCOC(=O)CNS(=O)(=O)c1ccc2c3c(cccc13)C(=O)N2CC,inactive: 2.6%
13,N#CC(C#N)=C1NC2(CCCCC2)Cc2ccccc21,inconclusive: -74.5%
14,CSC[C@H]1CN(c2ccccc2)C(=O)[C@@H]1CC(=O)Nc1ccc(Br)cc1,inactive: -5.3%
15,C=CCOc1ccnc(-c2ccccc2)n1,inconclusive: -1.6%
16,Cc1ccc(NC(=O)Cc2nnc(N)s2)cc1,inconclusive: -82%
17,CCCCCCCCOc1ccc(C2CC(=O)NC2=O)cc1 (stereo not drawn),inactive: -23.4%
18,CCCCCCN1C[C@@H](n2cc(-c3ccc(F)cc3)nn2)[C@H](O)C[C@@H]1c1ccccc1,inactive: -6.2%
19,O=C(Nc1ccc(Cl)cc1)Nc1ccc(N2CCCC2)c(S(=O)(=O)Nc2ccccc2Cl)c1,inactive: -11.8%
20,COC(=O)c1ccc(O)cc1,inconclusive: 32.1%
21,Cc1nc(Sc2ccccc2)c(C#N)c(C)c1[N+](=O)[O-],inconclusive: -12%
22,Cn1c(COc2ccccc2O)[n+](C)c2ccccc21,inactive: 4.4%
23,CC1=C(C(=O)Nc2ccccc2)C(c2ccc(C)o2)n2c(s/c(=C\c3ccco3)c2=O)=N1 (stereo not drawn),inconclusive: 10.1%
24,CCc1c(C(=O)Nc2nnc(C3CC3)s2)csc1C,inactive: 0%

row,SMILES,inhibition
1,CCOc1cc(/C=N/NC(=O)Cn2nc([N+](=O)[O-])cc2C)cc(Br)c1OCc1ccccc1C,inactive: -1.9%
2,COc1ccccc1CNC(=O)COc1ccc(Br)c(C)c1,inconclusive: 11.3%
3,CC1CC(=O)NN1C(=O)c1ccccc1 (stereo not drawn),inconclusive: -12.7%
4,OC12CC3C[C@H](C1)C(N1CCOCC1)[C@@H](C3)C2 (stereo partly drawn),inconclusive: -14.5%
5,C=CCN1C(=O)C(C)NC1=S (stereo not drawn),inconclusive: 14.7%
6,COc1cccc(NC(=O)CN(C)C(=O)CSCc2nc3scc(-c4cccs4)c3c(=O)[nH]2)c1,inconclusive: -12%
7,c1coc(C2OCC3(CO2)COC(c2ccco2)OC3)c1 (stereo not drawn),inconclusive: 50.8%
8,Cc1nn(Cc2ccc([N+](=O)[O-])cc2)c(=O)n1N(C)c1ncc(C(F)(F)F)cc1Cl,active: 38.4%
9,N#C/C(=C\c1ccc[nH]1)C(=O)c1ccccc1,inconclusive: -4.1%
10,COc1ccc(-c2ccc(CN3C(C)C(=O)N(Cc4cn(CCC5OCCO5)nn4)CCS3(=O)=O)cc2)cc1OC (stereo not drawn),inactive: 4.1%
11,COc1ccc(/C=N/NC(=O)c2nc(Cl)c(Cl)c(N)c2Cl)cc1COc1ccccc1F,inactive: -5.6%
12,CC1(C)CC(CCNC(=O)CCl)(c2ccccc2)CCO1 (stereo not drawn),inactive: 6.2%
13,CSCCC(=O)N(C)CC1CCN(CCc2cccc(C(F)(F)F)c2)CC1,inconclusive: 21.3%
14,O=S(=O)(c1ccc(Br)cc1)N1CCCc2ccccc21,inconclusive: 2.8%
15,CCCCn1c(-c2ccco2)n[nH]c1=S,inactive: 4.8%
16,CC1CCN(C(=O)CN2C(=O)c3ccccc3S2(=O)=O)CC1,inconclusive: -37.7%
17,CCOc1ccc(-c2n[nH]c(=S)n2Cc2ccccc2)cc1,inconclusive: -25.6%
18,Cn1c(C(=O)N[C@@H](C(=O)O)c2ccccc2)cc2cc(F)ccc21,inconclusive: -2%
19,CCCN(CCC)C(=O)c1ccc2nc(-c3ccc(OC)c(OC)c3)c(-c3ccc(OC)c(OC)c3)nc2c1,inconclusive: -2.3%
20,CCC(C(=O)OCC(=O)NC1CCS(=O)(=O)C1)c1ccccc1 (stereo not drawn),inconclusive: 0.5%
21,O=C(NC1CCSC1)c1cccc(Cl)c1 (stereo not drawn),inconclusive: -17.4%
22,CCCn1c(C(C)NC(=O)c2ccccc2)n[nH]c1=S (stereo not drawn),inconclusive: 107%
23,Cc1cccc(C(=O)N(C)c2nnc(-c3ccncc3)s2)c1,inactive: 15.3%
24,O=C(Nc1ccccc1F)N(Cc1ccc(F)cc1)Cc1nc2ccccc2c(=O)[nH]1,inactive: -4.9%

row,SMILES,inhibition
1,CN(CC(=O)Nc1cccc(S(=O)(=O)N2CCCC2)c1)Cc1ccccc1,inactive: 5.1%
2,CCOc1ccc2ccccc2c1C(=O)N1CCN(c2ccccc2)CC1,inactive: 5.8%
3,O=C(/C=C/c1ccccc1)NCCc1nc2ccccc2[nH]1,inconclusive: -7.6%
4,Cc1cc(O)c(C(=O)Nc2cccc(Cl)c2)c(=O)n1C,inactive: 0.2%
5,N/C(=N\c1nc(CSc2nc3ccccc3s2)cc(=O)[nH]1)Nc1ccc(F)cc1,inactive: -0.9%
6,NC(=O)CSCc1cccc(Br)c1,inactive: -25.8%
7,O=C(/C=C/c1ccccc1)Nc1cc(NC(=O)/C=C/c2ccccc2)cc(C(=O)O)c1,inconclusive: 19.1%
8,CC(=O)Nc1cnc(/C=C\CCCO)cn1,inactive: -1.1%
9,O=C(NNc1c(Cl)cncc1Cl)c1cccs1,inconclusive: 45.6%
10,CCc1ccc(CN2CCSCC2)cc1,inconclusive: 5.2%
11,Cc1ccc(S(=O)(=O)NC(CCC(N)=O)C(=O)NCc2ccc3c(c2)OCO3)c(C)c1 (stereo not drawn),inconclusive: -3.4%
12,COc1ccc(C(=O)NC(C)c2ccc(-n3ccnc3)cc2)cc1S(=O)(=O)N1CCOCC1 (stereo not drawn),inactive: -2.5%
13,CCCCCCNC(=O)O[C@H]1C[C@H](C(=O)OC)[C@H](C(=O)OC)C2CN(S(=O)(=O)c3ccc(C)cc3)C[C@@]21O (stereo partly drawn),inactive: 0.5%
14,CN(c1ccccc1C(=O)N1CCCC1)S(C)(=O)=O,inconclusive: -33.3%
15,COCCn1c(SCC(=O)NCc2ccco2)nnc1C(C)C,inconclusive: 12.7%
16,CC(=O)Nc1cc(NC(C)=O)cc(C(=O)NCC2(N3CCOCC3)CCCCC2)c1,inactive: 2%
17,COC(=O)CSc1nnc(-c2ccncc2)n1N,inactive: -0.4%
18,O=C(C1Cc2ccccc2CN1S(=O)(=O)c1cccs1)N1CCCCCC1 (stereo not drawn),inconclusive: 6%
19,COc1ccc(C(=O)NCC(=O)OC2CCCCC2=O)cc1 (stereo not drawn),inconclusive: 1.1%
20,Oc1c(Br)cc(/C=N/n2c(-c3ccccc3)n[nH]c2=S)cc1Br,inconclusive: 36.1%
21,CN(C)/C=N/c1nc(-c2ccc3ccccc3c2)cs1,inactive: 1.8%
22,CCOC(=O)N1CCN(C(=O)CCNS(=O)(=O)c2ccc(C)c(C)c2)CC1,inconclusive: 11.1%
23,COc1ccc(C(C)=O)cc1CSc1nnc(C)n1-c1ccccc1,inactive: 10.4%
24,COc1ccc(Cl)cc1S(=O)(=O)N1CCC(C(=O)NCCc2ccccc2)CC1,inconclusive: 7.3%

# Individual results from the list.
# For inhibition, COc1ccc(C(=O)NCC(=O)OC2CCCCC2=O)cc1 (stereo not drawn) has inconclusive: 1.1%
# For inhibition, O=C(/C=C/c1ccccc1)Nc1cc(NC(=O)/C=C/c2ccccc2)cc(C(=O)O)c1 has inconclusive: 19.1%
# For inhibition, COc1ccc(Cl)cc1S(=O)(=O)N1CCC(C(=O)NCCc2ccccc2)CC1 has inconclusive: 7.3%

# Remaining list, next part:

row,SMILES,inhibition
1,Clc1cccc(CNCCCSc2ncccn2)c1,inconclusive: 13.7%
2,O=C(Nc1ccc(OCc2ccccc2)cc1)Nc1ccccc1C(=O)NCCCN1CCOCC1,inconclusive: -92.7%
3,Cc1c(C(=O)O)oc2c1ccc1ccccc12,inconclusive: 12.3%
4,CC(=O)Nc1ccccc1C(F)(F)F,inconclusive: -18.9%
5,CCCNC(=O)N1CCC(c2ccc3c(c2)OCO3)CC1,inconclusive: 0.3%
6,O=C(NCCN1CCN(Cc2ccccc2Cl)CC1)Nc1ccccc1,inactive: 1.2%
7,Cc1ccc(C(=O)Nc2cccc3ccccc23)o1,inconclusive: 86.9%
8,COc1cc(F)ccc1S(=O)(=O)N1CCN(Cc2ccccc2)CC1,inconclusive: -44.2%
9,O=C(CSc1ccc(Cl)cc1)NCc1ccco1,inactive: -1.4%
10,O=C(N/N=C/c1ccccc1Br)c1cccc(S(=O)(=O)N2CCOCC2)c1,inconclusive: -4.5%
11,O=C(COc1ccccc1-c1ccccc1)NNC(=O)NC1CCCCC1,inactive: -2.3%
12,Clc1ccc(Cn2ncc3c(NCCN4CCOCC4)ncnc32)cc1,inconclusive: -25.9%
13,CC1CC(O)C2C3(C)CCCC2(COC3=O)C12CCC1(CCOC1=O)O2 (stereo not drawn),inactive: -8%
14,Cc1ccc(NC(=O)CSc2nc(-c3ccco3)cc(C(F)(F)F)n2)cc1C,inactive: -9.7%
15,CC(C)(C)C(=O)NC1(C(F)(F)F)NC(=O)N(Cc2ccccc2)C1=O (stereo not drawn),inconclusive: -45.7%
16,Cc1cc2ccccc2n1CCNC(=O)c1ccc(S(=O)(=O)N2CCOCC2)cc1,inactive: -128%
17,CCOc1ccccc1N1CCN(C(=O)C2=CC=CN3CCS(=O)(=O)N=C23)CC1,inactive: -2.4%
18,COc1ccc(NC(=O)c2ccco2)cc1NC(=O)c1ccco1,inactive: -1.9%
19,CC1=C(C(=O)Nc2ccccc2)C(c2cccc([N+](=O)[O-])c2)Nc2nc3ccccc3n21 (stereo not drawn),inactive: -2.9%
20,CCC(=NCc1ccco1)c1c(O)n(-c2ccc(Cl)cc2)c(=O)[nH]c1=O,inconclusive: -95.6%
21,CC12CCC(=O)N1C(C(=O)Nc1nc(-c3ccc(F)c(F)c3)cs1)CS2 (stereo not drawn),inconclusive: -51.9%
